Experimental data published in PMC6098246, “Zinc(II) binding on human wild-type ISCU and Met140 variants modulates NFS1 desulfurase activity” (Biochimie, 2018).
No constants are given. Whether binding was seen depends on the method and setting. Some entries that bind do so weakly or less than the wild type.

Amino acid sequences for entries named in this document (tags omitted). A change or cut given only in a name is not applied to a line headed by its entry. Residues count along the entry.
UniProt Q9HD34: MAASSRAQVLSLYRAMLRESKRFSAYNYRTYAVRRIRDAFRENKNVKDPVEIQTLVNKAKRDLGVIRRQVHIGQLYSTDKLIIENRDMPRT
UniProt Q9Y697, residues 56-457: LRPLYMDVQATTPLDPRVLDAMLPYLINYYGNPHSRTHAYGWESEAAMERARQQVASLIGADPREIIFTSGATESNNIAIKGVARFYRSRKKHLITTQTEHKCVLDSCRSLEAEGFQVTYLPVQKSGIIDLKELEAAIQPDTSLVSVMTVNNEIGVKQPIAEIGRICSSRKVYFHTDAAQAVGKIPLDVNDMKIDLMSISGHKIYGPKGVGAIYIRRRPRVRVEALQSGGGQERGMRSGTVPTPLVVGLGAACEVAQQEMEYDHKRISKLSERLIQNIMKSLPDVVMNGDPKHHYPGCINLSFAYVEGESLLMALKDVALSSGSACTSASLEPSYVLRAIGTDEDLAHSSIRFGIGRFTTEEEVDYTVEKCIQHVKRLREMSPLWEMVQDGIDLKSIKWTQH
UniProt P0A6A8: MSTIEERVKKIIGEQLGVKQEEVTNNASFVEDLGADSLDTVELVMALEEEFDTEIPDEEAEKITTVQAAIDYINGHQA

Columns and labels:
[1] = target: His-tagged human ISD11 (human) (UniProt Q9HD34); test: co-purification (Ni affinity, gel filtration); bi-cistronic co-expression of His-ISD11 and non-tagged NFS1 in E. coli; Ni Sepharose, then Superdex S200
[2] = target: His-tagged human ISD11 (human) (UniProt Q9HD34); test: SEC; poly-cistronic co-expression of NFS1, His-ISD11 and ISCU in E. coli; Ni affinity, then analytical gel filtration (Sepax SRT SEC-300; 50 mM HEPES pH 7.5, 150 mM NaCl, 5% glycerol, 2 mM TCEP); TCA precipitation and SDS-PAGE of fractions

non-tagged human NFS1 (Δ1-55) (from UniProt Q9Y697 56-457) (enzyme)
binding [1]: binds

E. coli acyl carrier protein (ACP) (from UniProt P0A6A8 1-78)
binding [2]: binds
binding [1]: binds
